Measured values published in paper PMC7876245.
These are yes or no findings as the source states them, for the method shown. Binding seen in cells or lysates may run through a third protein. Some results given as binding are weak or reduced against the parent protein; the word gives no strength.

The chains behind the UniProt entries cited, without tags or fusion partners.
UniProt Q8K1M6: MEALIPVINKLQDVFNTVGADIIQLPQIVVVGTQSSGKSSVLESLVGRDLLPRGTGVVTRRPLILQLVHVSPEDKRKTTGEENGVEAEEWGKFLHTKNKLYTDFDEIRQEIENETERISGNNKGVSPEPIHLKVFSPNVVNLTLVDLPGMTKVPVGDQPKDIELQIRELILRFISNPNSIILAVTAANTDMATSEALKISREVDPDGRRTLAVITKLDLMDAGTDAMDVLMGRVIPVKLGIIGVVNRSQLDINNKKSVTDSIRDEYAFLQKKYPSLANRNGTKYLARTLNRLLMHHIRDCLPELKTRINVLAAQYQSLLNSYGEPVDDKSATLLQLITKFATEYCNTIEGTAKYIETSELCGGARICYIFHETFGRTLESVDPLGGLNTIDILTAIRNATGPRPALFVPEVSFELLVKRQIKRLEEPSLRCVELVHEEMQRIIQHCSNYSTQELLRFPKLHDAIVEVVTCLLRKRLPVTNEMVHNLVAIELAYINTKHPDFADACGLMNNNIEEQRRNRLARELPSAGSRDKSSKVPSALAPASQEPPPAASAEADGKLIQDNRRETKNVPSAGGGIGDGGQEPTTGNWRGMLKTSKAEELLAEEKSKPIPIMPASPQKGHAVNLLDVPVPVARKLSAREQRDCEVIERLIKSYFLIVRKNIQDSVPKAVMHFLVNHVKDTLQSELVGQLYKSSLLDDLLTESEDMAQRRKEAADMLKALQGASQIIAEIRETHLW

Biological target: dynamin-related protein 1 (mouse (endogenous in primary astrocytes)) (UniProt Q8K1M6)
Experiment: co-IP; lysates of primary astrocytes (WT and kir6.2-/- mice, treated with CON-MCM or LPS-MCM for 24 h) incubated overnight with anti-Drp1 or anti-Fis1 antibody (or mouse/rabbit IgG), then protein A/G-agarose beads 4 h at 4°C; western blot for Drp1 and Fis1; both orientations (IP Drp1, blot Fis1; IP Fis1, blot Drp1)

binding: binds
B1: mitochondrial fission 1 (protein, UniProt Q9CQ92 1-152)
chain: MEAVLNELVSVEDLKNFERKFQSEQAAGSVSKSTQFEYAWCLVRSKYNEDIRRGIVLLEELLPKGSKEEQRDYVFYLAVGNYRLKEYEKALKYVRGLLQTEPQNNQAKELERLIDKAMKKDGLVGMAIVGGMALGVAGLAGLIGLAVSKSKS
